Results on three molecules are retold here after patent US20170340735A1.

Where a chain is given by its changes, count along the chain named. These are yes or no findings as the source states them, for the method shown.

B1: MAB19-IgG4 (antibody, V domains shown)
VH: QVQLVQSGAEVKKPGASVKVSCKASGYTFTSHYMGWVRQAPGQGLEWMGVINPSMGATSYAQKFQGRVTMTRDTSTSTVYMELSSLRSEDTAVYYCARLHVSGSYYPAYLDYWGQGTMVTVSS
VL: EIVMTQSPATLSVSPGERATLSCRASQSVSSNLAWYQQKPGQAPRHLIYGASTRATGIPARFSGSGSGTEFTLTISSLQSEDFAVYYCQQYIVFPWTFGGGTKVEIKR
B2: MAB21-IgG4 (antibody, V domains shown)
VH: B1 VH with V50I, A61T, Q65R
VL: B1 VL
B3: MAB20-IgG4 (antibody, V domains shown)
VH: B1 VH with M48V, V50I
VL: B1 VL

The target in the test is recombinant monomeric cynomolgus monkey TIGIT-His (cynomolgus monkey). Kind of test: BLI (ForteBio), IgG on AHQ sensor, single antigen concentration. On the technique in general: Biolayer interferometry detects binding as a change in optical thickness at a sensor tip.
Take B1: the binding entry is listed as “no binding (tested: 100 nM antigen)”.

For B2, the binding result is listed as “no binding (tested: 100 nM antigen)”.

Take B3: the binding result was “no binding (tested: 100 nM antigen)”.
